Earlier results, collected in patent US20130109655A1, “Method for mitigating of Prostaglandin E2 reducing side effects of non-steroidal anti-inflammatory drugs” (priority 2011, published 2013).
At least one compound was matched to its structure with a doubt left.

Test system: prostaglandin e2 like substance (PGe2-LS)
Settings: samples treated with indomethacin and the pyridine derivative; control group 0.54±0.06; n=5; cited from earlier work

SMILES: CNC(=O)OCc1cccc(COC(=O)NC)n1 [pyridinol carbamate]
- PGe2-LS release (M±SE): 0.63 ± 0.02 ng/min
